Article PMC13429693, “Disease-associated genetic variants can cause missense effects in tissue-specific protein isoforms” (Nature Communications, 2026)

What was measured:
[1] = biological target: DPP9-AFE(L8P)-YFP (human); assay: co-IP; HEK293T cells co-transfected with YFP-tagged DPP9 isoforms and NLRP1-Flag; NP-40 lysis buffer (50 mM Tris-HCl pH 7.4, 150 mM NaCl, 1% NP-40, 5 mM EDTA); GFP-Trap magnetic agarose beads overnight at 4 °C; blots with α-GFP and α-Flag
DPP9-AFE-YFP (human) = assay: as above

- binding [1]: binds
- binding (DPP9-AFE-YFP (human)): binds
B1: NLRP1-Flag (protein, UniProt Q9C000 1-1473)
chain: MAGGAWGRLACYLEFLKKEELKEFQLLLANKAHSRSSSGETPAQPEKTSGMEVASYLVAQYGEQRAWDLALHTWEQMGLRSLCAQAQEGAGHSPSFPYSPSEPHLGSPSQPTSTAVLMPWIHELPAGCTQGSERRVLRQLPDTSGRRWREISASLLYQALPSSPDHESPSQESPNAPTSTAVLGSWGSPPQPSLAPREQEAPGTQWPLDETSGIYYTEIREREREKSEKGRPPWAAVVGTPPQAHTSLQPHHHPWEPSVRESLCSTWPWKNEDFNQKFTQLLLLQRPHPRSQDPLVKRSWPDYVEENRGHLIEIRDLFGPGLDTQEPRIVILQGAAGIGKSTLARQVKEAWGRGQLYGDRFQHVFYFSCRELAQSKVVSLAELIGKDGTATPAPIRQILSRPERLLFILDGVDEPGWVLQEPSSELCLHWSQPQPADALLGSLLGKTILPEASFLITARTTALQNLIPSLEQARWVEVLGFSESSRKEYFYRYFTDERQAIRAFRLVKSNKELWALCLVPWVSWLACTCLMQQMKRKEKLTLTSKTTTTLCLHYLAQALQAQPLGPQLRDLCSLAAEGIWQKKTLFSPDDLRKHGLDGAIISTFLKMGILQEHPIPLSYSFIHLCFQEFFAAMSYVLEDEKGRGKHSNCIIDLEKTLEAYGIHGLFGASTTRFLLGLLSDEGEREMENIFHCRLSQGRNLMQWVPSLQLLLQPHSLESLHCLYETRNKTFLTQVMAHFEEMGMCVETDMELLVCTFCIKFSRHVKKLQLIEGRQHRSTWSPTMVVLFRWVPVTDAYWQILFSVLKVTRNLKELDLSGNSLSHSAVKSLCKTLRRPRCLLETLRLAGCGLTAEDCKDLAFGLRANQTLTELDLSFNVLTDAGAKHLCQRLRQPSCKLQRLQLVSCGLTSDCCQDLASVLSASPSLKELDLQQNNLDDVGVRLLCEGLRHPACKLIRLGLDQTTLSDEMRQELRALEQEKPQLLIFSRRKPSVMTPTEGLDTGEMSNSTSSLKRQRLGSERAASHVAQANLKLLDVSKIFPIAEIAEESSPEVVPVELLCVPSPASQGDLHTKPLGTDDDFWGPTGPVATEVVDKEKNLYRVHFPVAGSYRWPNTGLCFVMREAVTVEIEFCVWDQFLGEINPQHSWMVAGPLLDIKAEPGAVEAVHLPHFVALQGGHVDTSLFQMAHFKEEGMLLEKPARVELHHIVLENPSFSPLGVLLKMIHNALRFIPVTSVVLLYHRVHPEEVTFHLYLIPSDCSIRKAIDDLEMKFQFVRIHKPPPLTPLYMGCRYTVSGSGSGMLEILPKELELCYRSPGEDQLFSEFYVGHLGSGIRLQVKDKKDETLVWEALVKPGDLMPATTLIPPARIAVPSPLDAPQLLHFVDQYREQLIARVTSVEVVLDKLHGQVLSQEQYERVLAENTRPSQMRKLFSLSQSWDRKCKDGLYQALKETHPHLIMELWEKGSKKGLLPLSS

No constants are given. Whether binding was seen depends on the method and setting. In cells and extracts the contact can be indirect. Binding can be weak; no strength is given. Tags and fused reporters may be left off the sequences shown.
